Assay results published in US20110269817A1, “COMPOSITIONS AND METHODS RELATED TO SIRT1 FUNCTION” (The Regents of the University of California, priority 2008, published 2011).
Results are given in words; binding and its absence hold for the method and conditions named. Binding seen in cells or lysates may run through a third protein. Some binding calls cover weakened binding; strength is not graded here.

Legend:
[1] = molecular target: T1, Endogenous CLOCK of mouse liver and MEFs (mouse) (UniProt O08785); assay: coimmunoprecipitation of endogenous proteins from mouse liver extracts (FIG. 5B)
T1 sequence (looked up): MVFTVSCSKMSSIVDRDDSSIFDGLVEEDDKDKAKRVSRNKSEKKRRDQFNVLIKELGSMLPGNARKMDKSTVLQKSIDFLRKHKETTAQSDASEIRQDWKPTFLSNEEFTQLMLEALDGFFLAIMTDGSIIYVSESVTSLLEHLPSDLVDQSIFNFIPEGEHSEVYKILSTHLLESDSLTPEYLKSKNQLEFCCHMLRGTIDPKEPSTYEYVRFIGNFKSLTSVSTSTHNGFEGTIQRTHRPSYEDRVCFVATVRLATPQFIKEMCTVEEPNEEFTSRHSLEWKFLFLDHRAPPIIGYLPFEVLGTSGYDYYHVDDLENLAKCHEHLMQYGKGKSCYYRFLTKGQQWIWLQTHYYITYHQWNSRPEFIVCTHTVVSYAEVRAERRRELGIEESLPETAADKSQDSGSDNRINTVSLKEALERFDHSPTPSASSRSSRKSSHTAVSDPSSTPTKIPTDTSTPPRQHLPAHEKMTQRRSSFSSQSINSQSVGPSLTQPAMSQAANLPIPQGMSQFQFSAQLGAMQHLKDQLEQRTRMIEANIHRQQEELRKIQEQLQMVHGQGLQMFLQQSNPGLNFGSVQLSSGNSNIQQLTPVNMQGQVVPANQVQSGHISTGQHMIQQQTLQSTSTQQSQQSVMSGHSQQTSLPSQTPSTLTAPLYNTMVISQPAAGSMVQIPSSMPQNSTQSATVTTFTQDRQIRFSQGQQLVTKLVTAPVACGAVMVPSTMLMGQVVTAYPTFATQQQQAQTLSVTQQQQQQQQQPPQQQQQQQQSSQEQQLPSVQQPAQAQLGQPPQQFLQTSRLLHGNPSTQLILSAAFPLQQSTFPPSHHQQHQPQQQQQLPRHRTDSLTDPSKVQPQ

[2] = molecular target: T1, Endogenous CLOCK of mouse liver and MEFs (mouse); assay: coimmunoprecipitation of SIRT1 from MEFs with anti-CLOCK antibody at various times after serum shock (FIG. 5C)
[3] = molecular target: T1, Endogenous CLOCK of mouse liver and MEFs (mouse); assay: coimmunoprecipitation (FIG. 5)

Measured: binding

B1: Endogenous (native) SIRT1 of mouse liver and MEFs (enzyme, UniProt Q923E4 2-737, looked up)
chain: ADEVALALQAAGSPSAAAAMEAASQPADEPLRKRPRRDGPGLGRSPGEPSAAVAPAAAGCEAASAAAPAALWREAAGAAASAEREAPATAVAGDGDNGSGLRREPRAADDFDDDEGEEEDEAAAAAAAAAIGYRDNLLLTDGLLTNGFHSCESDDDDRTSHASSSDWTPRPRIGPYTFVQQHLMIGTDPRTILKDLLPETIPPPELDDMTLWQIVINILSEPPKRKKRKDINTIEDAVKLLQECKKIIVLTGAGVSVSCGIPDFRSRDGIYARLAVDFPDLPDPQAMFDIEYFRKDPRPFFKFAKEIYPGQFQPSLCHKFIALSDKEGKLLRNYTQNIDTLEQVAGIQRILQCHGSFATASCLICKYKVDCEAVRGDIFNQVVPRCPRCPADEPLAIMKPEIVFFGENLPEQFHRAMKYDKDEVDLLIVIGSSLKVRPVALIPSSIPHEVPQILINREPLPHLHFDVELLGDCDVIINELCHRLGGEYAKLCCNPVKLSEITEKPPRPQKELVHLSELPPTPLHISEDSSSPERTVPQDSSVIATLVDQATNNNVNDLEVSESSCVEEKPQEVQTSRNVENINVENPDFKAVGSSTADKNERTSVAETVRKCWPNRLAKEQISKRLEGNQYLFVPPNRYIFHGAEVYSDSEDDVLSSSSCGSNSDSGTCQSPSLEEPLEDESEIEEFYNGLEDDTERPECAGGSGFGADGGDQEVVNEAIATRQELTDVNYPSDKS
binds: [1] | [2] | [3]
